Laboratory results published in paper PMC3262014.
These are yes or no findings as the source states them, for the method shown. Binding seen in cells or lysates may run through a third protein. Some results given as binding are weak or reduced against the parent protein; the word gives no strength.

Protein sequences, listed by entry. Tags and fused reporters are not part of them.
UniProt P52294: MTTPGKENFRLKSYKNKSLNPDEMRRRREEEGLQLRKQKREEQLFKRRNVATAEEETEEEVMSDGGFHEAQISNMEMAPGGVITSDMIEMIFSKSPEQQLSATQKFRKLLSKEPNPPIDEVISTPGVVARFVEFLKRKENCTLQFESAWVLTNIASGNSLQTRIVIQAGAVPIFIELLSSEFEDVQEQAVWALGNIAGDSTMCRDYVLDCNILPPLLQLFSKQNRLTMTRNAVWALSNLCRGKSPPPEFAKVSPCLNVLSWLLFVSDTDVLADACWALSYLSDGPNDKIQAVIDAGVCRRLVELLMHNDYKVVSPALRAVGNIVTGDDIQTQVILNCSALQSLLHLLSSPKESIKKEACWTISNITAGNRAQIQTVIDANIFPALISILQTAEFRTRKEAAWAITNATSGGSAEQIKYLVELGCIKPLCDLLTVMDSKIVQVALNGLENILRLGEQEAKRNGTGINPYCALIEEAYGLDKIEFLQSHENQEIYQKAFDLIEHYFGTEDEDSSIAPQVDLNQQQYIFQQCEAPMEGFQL
UniProt O00629: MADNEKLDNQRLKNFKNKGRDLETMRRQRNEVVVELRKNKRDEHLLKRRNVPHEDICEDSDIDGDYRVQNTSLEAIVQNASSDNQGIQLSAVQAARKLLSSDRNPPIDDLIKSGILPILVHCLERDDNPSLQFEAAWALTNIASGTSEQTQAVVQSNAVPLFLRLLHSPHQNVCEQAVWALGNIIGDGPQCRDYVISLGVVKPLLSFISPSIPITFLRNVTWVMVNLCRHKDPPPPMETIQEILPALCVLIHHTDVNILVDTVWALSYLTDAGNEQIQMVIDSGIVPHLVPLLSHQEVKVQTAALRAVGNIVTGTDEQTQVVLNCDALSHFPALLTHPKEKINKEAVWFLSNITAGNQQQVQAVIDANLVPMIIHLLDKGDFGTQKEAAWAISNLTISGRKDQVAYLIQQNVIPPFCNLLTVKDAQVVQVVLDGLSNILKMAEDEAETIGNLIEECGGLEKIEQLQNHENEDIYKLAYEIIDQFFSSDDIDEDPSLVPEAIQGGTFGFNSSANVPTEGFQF
UniProt O00505: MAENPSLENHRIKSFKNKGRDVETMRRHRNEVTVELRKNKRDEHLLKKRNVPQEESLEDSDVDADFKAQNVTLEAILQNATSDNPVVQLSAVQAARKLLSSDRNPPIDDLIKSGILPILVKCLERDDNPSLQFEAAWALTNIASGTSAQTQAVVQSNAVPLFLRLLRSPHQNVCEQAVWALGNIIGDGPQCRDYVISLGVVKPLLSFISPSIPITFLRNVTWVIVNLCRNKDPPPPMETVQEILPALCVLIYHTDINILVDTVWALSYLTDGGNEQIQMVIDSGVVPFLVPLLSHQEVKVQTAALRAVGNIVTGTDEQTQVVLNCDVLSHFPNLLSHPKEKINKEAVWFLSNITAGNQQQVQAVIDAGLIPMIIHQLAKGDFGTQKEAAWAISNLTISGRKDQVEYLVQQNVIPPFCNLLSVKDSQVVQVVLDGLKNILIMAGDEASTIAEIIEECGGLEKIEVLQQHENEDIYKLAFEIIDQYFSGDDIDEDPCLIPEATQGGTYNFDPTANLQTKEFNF
UniProt P15682: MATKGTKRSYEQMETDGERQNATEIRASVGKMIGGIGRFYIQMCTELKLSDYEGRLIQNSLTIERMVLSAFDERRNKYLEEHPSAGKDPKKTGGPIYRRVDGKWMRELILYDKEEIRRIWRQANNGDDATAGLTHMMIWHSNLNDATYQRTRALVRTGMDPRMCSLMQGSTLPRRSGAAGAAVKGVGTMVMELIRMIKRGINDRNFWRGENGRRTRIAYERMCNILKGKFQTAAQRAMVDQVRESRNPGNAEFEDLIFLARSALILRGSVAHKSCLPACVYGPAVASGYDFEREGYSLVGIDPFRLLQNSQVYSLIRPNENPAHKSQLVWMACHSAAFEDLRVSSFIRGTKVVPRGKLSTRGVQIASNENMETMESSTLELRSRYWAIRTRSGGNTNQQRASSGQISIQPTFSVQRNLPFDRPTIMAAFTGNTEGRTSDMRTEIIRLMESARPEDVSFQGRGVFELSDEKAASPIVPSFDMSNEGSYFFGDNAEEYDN
UniProt Q14974: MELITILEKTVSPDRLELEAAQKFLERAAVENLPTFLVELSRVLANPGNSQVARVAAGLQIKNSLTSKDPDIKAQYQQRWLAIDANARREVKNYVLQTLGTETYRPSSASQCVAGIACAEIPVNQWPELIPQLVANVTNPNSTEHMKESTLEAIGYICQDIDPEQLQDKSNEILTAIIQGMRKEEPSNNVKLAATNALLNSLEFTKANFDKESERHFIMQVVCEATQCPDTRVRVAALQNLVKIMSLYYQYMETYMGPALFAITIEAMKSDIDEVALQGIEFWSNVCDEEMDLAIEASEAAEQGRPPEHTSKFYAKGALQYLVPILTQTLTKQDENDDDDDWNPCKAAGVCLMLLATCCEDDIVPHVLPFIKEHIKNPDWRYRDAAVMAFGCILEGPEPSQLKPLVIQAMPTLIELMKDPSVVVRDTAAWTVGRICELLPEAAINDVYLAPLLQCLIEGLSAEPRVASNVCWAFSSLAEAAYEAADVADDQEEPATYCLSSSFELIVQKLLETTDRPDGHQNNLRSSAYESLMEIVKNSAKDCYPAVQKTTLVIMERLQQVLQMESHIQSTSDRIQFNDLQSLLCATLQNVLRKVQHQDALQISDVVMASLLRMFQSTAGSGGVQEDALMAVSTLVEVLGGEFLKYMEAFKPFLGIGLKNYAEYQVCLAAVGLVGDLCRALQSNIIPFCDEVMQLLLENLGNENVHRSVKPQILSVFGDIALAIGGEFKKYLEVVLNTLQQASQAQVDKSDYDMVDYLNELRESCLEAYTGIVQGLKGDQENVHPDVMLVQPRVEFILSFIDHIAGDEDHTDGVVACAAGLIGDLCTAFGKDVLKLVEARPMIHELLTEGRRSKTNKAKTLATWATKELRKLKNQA

Tests used:
Test in all cases: co-IP
importin-α7-FLAG (human) = importin-α7-FLAG (human) (UniProt O60684)
importin-α5-FLAG (human) = importin-α5-FLAG (human) (UniProt P52294)
importin-α3-FLAG (human) = importin-α3-FLAG (human) (UniProt O00629)
importin-α4-FLAG (human) = importin-α4-FLAG (human) (UniProt O00505)
[1] = molecular target: WSN-NP-FLAG (influenza A virus A/WSN/33 (H1N1)) (UniProt P15682)

Substance: NP of recombinant A/WSN/33 virus in infected cells (from UniProt P15682 1-498)
- binding (importin-α7-FLAG (human)): binds
- binding (importin-α5-FLAG (human)): binds
- binding (importin-α3-FLAG (human)): binds
- binding (importin-α4-FLAG (human)): binds

Substance: WSN-NP (from UniProt P15682 1-498)
- binding (importin-α7-FLAG (human)): binds
- binding (importin-α5-FLAG (human)): binds
- binding (importin-α3-FLAG (human)): binds
- binding (importin-α4-FLAG (human)): binds

Substance: importin-α3 (endogenous) (from UniProt O00629 1-521)
- binding [1]: binds

Substance: importin-α4 (endogenous) (from UniProt O00505 1-521)
- binding [1]: binds

Substance: importin-α5 (endogenous) (from UniProt P52294 1-538)
- binding [1]: binds

Substance: importin-α7 (endogenous) (from UniProt O60684 1-536)
- binding [1]: binds

Substance: importin-β1 (endogenous) (from UniProt Q14974 1-876)
- binding [1]: binds
- binding (importin-α7-FLAG (human)): binds
- binding (importin-α5-FLAG (human)): binds
- binding (importin-α3-FLAG (human)): binds
- binding (importin-α4-FLAG (human)): binds
